Reference: article PMC6158189, “A pharmacological probe identifies cystathionine β-synthase as a new negative regulator for ferroptosis” (Cell Death & Disease, 2018)

Assay: H2S-donor (NaHS) interfering assay
Settings: 100 μM NaHS, no CBS

Cn1nc(Cc2ccccc2)nc2c(=O)n(C)c(=O)nc1-2 [CH004, 3-benzyl-1,6-dimethylpyrimido[5,4-e][1,2,4]triazine-5,7(1H,6H)-dione]
concentration from which a significant amount of H2S is trapped: ≥ 50 µM | absorption of H2S released from NaSH (1 or 10 μM compound): did not absorb much
